Source: BindingDB's records for PubMed 11171942 (University of Reading, 2001)
pKi: −log10 of the molar value.

Chains of the proteins cited; added tags and fusions are not shown.
UniProt P19020, whole entry: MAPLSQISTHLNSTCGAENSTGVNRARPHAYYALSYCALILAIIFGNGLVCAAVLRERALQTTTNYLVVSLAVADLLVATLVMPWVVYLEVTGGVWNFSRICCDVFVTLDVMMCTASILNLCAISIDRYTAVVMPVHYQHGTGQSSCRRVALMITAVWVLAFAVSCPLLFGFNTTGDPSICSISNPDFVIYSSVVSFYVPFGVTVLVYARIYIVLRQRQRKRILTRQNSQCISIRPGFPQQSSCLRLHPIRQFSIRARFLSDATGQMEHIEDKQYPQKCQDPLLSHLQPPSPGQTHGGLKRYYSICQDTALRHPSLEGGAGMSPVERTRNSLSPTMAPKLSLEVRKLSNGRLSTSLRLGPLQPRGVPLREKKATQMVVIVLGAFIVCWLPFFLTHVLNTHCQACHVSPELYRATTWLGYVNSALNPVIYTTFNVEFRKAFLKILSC

Tests used:
D(3) dopamine receptor = D(3) dopamine receptor (Rattus norvegicus, UniProt P19020)
D(4) dopamine receptor = biological target: T1, D(4) dopamine receptor (Rattus norvegicus, UniProt P30729)
T1 sequence (P30729 whole entry): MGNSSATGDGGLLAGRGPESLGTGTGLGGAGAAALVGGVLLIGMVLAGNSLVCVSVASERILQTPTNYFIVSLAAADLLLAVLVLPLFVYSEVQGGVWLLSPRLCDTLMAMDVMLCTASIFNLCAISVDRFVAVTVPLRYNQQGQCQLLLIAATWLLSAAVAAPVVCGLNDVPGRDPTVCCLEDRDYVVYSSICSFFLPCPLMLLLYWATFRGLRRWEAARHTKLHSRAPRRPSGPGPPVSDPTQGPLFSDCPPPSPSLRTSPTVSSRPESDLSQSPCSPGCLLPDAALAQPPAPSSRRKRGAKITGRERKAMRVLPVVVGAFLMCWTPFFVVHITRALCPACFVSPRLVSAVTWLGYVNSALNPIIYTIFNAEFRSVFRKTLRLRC

## OCCOCCN1CCN(C2=Nc3ccccc3Sc3ccccc32)CC1 [2-[2-(4-dibenzo[b,f][1,4]thiazepin-11-ylpiperazin-1-yl)ethoxy]ethanol]
D(3) dopamine receptor
  pKi: 6.47
D(4) dopamine receptor
  pKi: 5.70

## CSc1ccc2c(c1)N(CC[C@@H]1CCCCN1C)c1ccccc1S2 [10-[2-(1-Methyl-piperidin-2-yl)-ethyl]-2-methylsulfanyl-10H-phenothiazine (thioridazine)]
D(3) dopamine receptor
  pKi: 8.64
D(4) dopamine receptor
  pKi: 8.00
